Results published in PMC6936093.
Results are given in words; binding and its absence hold for the method and conditions named. In cells and extracts the contact can be indirect. Some results given as binding are weak or reduced against the parent protein; the word gives no strength. Tags and fused reporters may be left off the sequences shown.

By UniProt entry, the sequences of proteins in these tests, tags left out.
UniProt Q96DH6: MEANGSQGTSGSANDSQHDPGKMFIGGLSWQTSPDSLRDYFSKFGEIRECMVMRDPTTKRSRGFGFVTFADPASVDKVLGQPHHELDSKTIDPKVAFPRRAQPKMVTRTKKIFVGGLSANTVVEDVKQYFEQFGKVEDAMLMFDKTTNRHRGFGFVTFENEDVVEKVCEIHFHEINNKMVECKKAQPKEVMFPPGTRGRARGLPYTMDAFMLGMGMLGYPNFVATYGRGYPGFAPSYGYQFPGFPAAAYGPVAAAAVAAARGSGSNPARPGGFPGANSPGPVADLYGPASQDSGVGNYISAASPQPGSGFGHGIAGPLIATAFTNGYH

Target: Musashi2 (MSI2) (human (endogenous in SNU-398)) (UniProt Q96DH6)
Assay: co-IP; SNU-398 cells (sorted CD44v6+ and CD44v6-; with MSI2 shRNA1, Lv MSI2 or control virus) lysed in RIPA buffer with protease inhibitors; precipitated with anti-MSI2 antibody on Protein A/G PLUS-Agarose, immunoblotted for LFNG

B1: Lunatic fringe (LFNG), LFNG O-fucosylpeptide 3-beta-N-acetylglucosaminyltransferase (enzyme, UniProt Q8NES3 1-379)
chain: MLKRCGRRLLLALAGALLACLLVLTADPPPPPLPAERGRRALRSLAGPAGAAPAPGLGAAAAAPGALVRDVHSLSEYFSLLTRARRDAGPPPGAAPRPADGHPRPLAEPLAPRDVFIAVKTTKKFHRARLDLLLETWISRHKEMTFIFTDGEDEALARHTGNVVITNCSAAHSRQALSCKMAVEYDRFIESGRKWFCHVDDDNYVNLRALLRLLASYPHTRDVYVGKPSLDRPIQAMERVSENKVRPVHFWFATGGAGFCISRGLALKMSPWASGGHFMNTAERIRLPDDCTIGYIVEALLGVPLIRSGLFHSHLENLQQVPTSELHEQVTLSYGMFENKRNAVHVKGPFSVEADPSRFRSIHCHLYPDTPWCPRTAIF
For B1, which binding is on record?
The binding was “binds”.
